# According to patent US20150322149A1:
# Amino acid sequences for entries named in this document (tags omitted). Residues count along the entry.
# UniProt P05067, residues 672-713: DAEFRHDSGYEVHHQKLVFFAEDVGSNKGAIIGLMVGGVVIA
# These are yes or no findings as the source states them, for the method shown. Some results given as binding are weak or reduced against the parent protein; the word gives no strength.
# B1: mAb31 (human monoclonal antibody recognizing Abeta; INN Gantenerumab) (antibody, V domains shown)
# VH: QVELVESGGGLVQPGGSLRLSCAASGFTFSSYAMSWVRQAPGKGLEWVSAINASGTRTYYADSVKGRFTISRDNSKNTLYLQMNSLRAEDTAVYYCARGKGNTHKPYGYVRYFDVWGQGTLVTVSS
# VL: DIVLTQSPATLSLSPGERATLSCRASQSVSSSYLAWYQQKPGQAPRLLIYGASSRATGVPARFSGSGSGTDFTLTISSLEPEDFATYYCLQIYNMPITFGQGTKVEIKR
# Tests used:
# [1] = biological target: Abeta in amyloid plaques of APP transgenic mouse brain cryosections (UniProt P05067); assay: immunofluorescence staining of 18-month brain cryosections
# [2] = biological target: Abeta in amyloid plaques of APP transgenic mouse brain cryosections (UniProt P05067); assay: immunofluorescence staining of 18-month APP transgenic mouse brain cryosections
binder,measurement,setting,value
B1,binding,[1],binds
same,binding,[2],binds
